Measured values: the supplement of paper PMC11542785
Structures can show the parent of a compound that is named as a salt. The list shows a part of the results. Repeats are few or missing, and single values can be far off.

Tested on: Drosophila melanogaster DPAGT1 (Alg7) RNAi eye model
Test: eye size Z-score vs DMSO-treated DPAGT1 model flies; higher = larger eye (suppression of DPAGT1 phenotype)
Details: 5 uM

Cn1ccnc1S [Methimazole]
eye size Z-score (female): 0

Nc1c(Br)cc(Br)cc1CN[C@H]1CC[C@H](O)CC1 [Ambroxol hydrochloride]
eye size Z-score: -0.61

CCC(=O)c1ccc(O)cc1 [Paroxypropione]
eye size Z-score: 0.76

O=c1cc(-c2ccc(O)c(O)c2)oc2cc(O)cc(O)c12 [Luteolin]
eye size Z-score: 0.27

CC(C)(C(=O)c1cccnc1)c1cccnc1 [Metyrapone]
eye size Z-score: -1.13

CC(C)(S)C(N)C(=O)O (racemic) [D,L-Penicillamine]
eye size Z-score: 0.22

CC(=O)N(O)CCCCCNC(=O)CCC(=O)N(O)CCCCCNC(=O)CCC(=O)N(O)CCCCCN [Deferoxamine mesylate]
eye size Z-score: 0.52

CC(C)/N=c1\cc2n(-c3ccc(Cl)cc3)c3ccccc3nc-2cc1Nc1ccc(Cl)cc1 [Clofazimine]
eye size Z-score: 0.96

O=C1Cc2cc(CCN3CCN(c4nsc5ccccc45)CC3)c(Cl)cc2N1 [Ziprasidone  hydrochloride monohydrate]
eye size Z-score: 0.61

CCCC(=O)N1CCCN(c2nc(N)c3cc(OC)c(OC)cc3n2)CC1 [Bunazosin hydrochloride]
eye size Z-score: -0.91

CCN[C@H]1C[C@H](C)S(=O)(=O)c2sc(S(N)(=O)=O)cc21 [Dorzolamide hydrochloride]
eye size Z-score: 0.19

CO[C@@]1(NC(=O)CSCC#N)C(=O)N2C(C(=O)O)=C(CSc3nnnn3C)CS[C@@H]21 [Cefmetazole sodium salt]
eye size Z-score: 0.16

C[C@@H]1[C@H](O)[C@@H](C)/C=C/C=C/C=C/C=C/C=C/C=C/C=C/[C@H](O[C@@H]2O[C@H](C)[C@@H](O)[C@H](N)[C@@H]2O)C[C@@H]2O[C@](O)(C[C@@H](O)C[C@@H](O)[C@H](O)CC[C@@H](O)C[C@@H](O)CC(=O)O[C@H]1C)C[C@H](O)[C@H]2C(=O)O [Amphotericin B]
eye size Z-score: -0.71

CCOC(=O)C(C)(C)Oc1ccc(Cl)cc1 [Clofibrate]
eye size Z-score: 0.23

CC(C)NC[C@H](O)COc1ccc(CC(N)=O)cc1 [(S,-) Atenolol]
eye size Z-score: -0.15

CCC(NC(C)C)C(O)c1ccc(O)c(O)c1 (stereo not given) [Isoetharine mesylate salt]
eye size Z-score: 0.47

CCC(Cc1c(I)cc(I)c(N)c1I)C(=O)O (stereo not given) [Iopanoic acid]
eye size Z-score: 0.4

CN1CCc2cccc3c2[C@H]1Cc1ccc(O)c(O)c1-3 [R(-) Apomorphine hydrochloride hemihydrate]
eye size Z-score: -0.44

CN1CCN(C2=Nc3cc(Cl)ccc3Nc3ccccc32)CC1 [Clozapine]
eye size Z-score: -1.11

Cc1ccc(-c2ncc(Cl)cc2-c2ccc(S(C)(=O)=O)cc2)cn1 [Etoricoxib]
eye size Z-score: -1.09
